Source: the supplement of paper PMC12819154, “High-throughput peptide-centric local stability assay extends protein–ligand identification to membrane proteins, tissues and bacteria” (Nature Structural & Molecular Biology, 2025)
The list shows a part of the results. Small differences around the control level are noise.

By UniProt entry, the sequences of proteins in these tests, tags left out. Where a name states a change or a piece, a line headed by the entry shows the natural chain unless it says otherwise.
UniProt Q96S15: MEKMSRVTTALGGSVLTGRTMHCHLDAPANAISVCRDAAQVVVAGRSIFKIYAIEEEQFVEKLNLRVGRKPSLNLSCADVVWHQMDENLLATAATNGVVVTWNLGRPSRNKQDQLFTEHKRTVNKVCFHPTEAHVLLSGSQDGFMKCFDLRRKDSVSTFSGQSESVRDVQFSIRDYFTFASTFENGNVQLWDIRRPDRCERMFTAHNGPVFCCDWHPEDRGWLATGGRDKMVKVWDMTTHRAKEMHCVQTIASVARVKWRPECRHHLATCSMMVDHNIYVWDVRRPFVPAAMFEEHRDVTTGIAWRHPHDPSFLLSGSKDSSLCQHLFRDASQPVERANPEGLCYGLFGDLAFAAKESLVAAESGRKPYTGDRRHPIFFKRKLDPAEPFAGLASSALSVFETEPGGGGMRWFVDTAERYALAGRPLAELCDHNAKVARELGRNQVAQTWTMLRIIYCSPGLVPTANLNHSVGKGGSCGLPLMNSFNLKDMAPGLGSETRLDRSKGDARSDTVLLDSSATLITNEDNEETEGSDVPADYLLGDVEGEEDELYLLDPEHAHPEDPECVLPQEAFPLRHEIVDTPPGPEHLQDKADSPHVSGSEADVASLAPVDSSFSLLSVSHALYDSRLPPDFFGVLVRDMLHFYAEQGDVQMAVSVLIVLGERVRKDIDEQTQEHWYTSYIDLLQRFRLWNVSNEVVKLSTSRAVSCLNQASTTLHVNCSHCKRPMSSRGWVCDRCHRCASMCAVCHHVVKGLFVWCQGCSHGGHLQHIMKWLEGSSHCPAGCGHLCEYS
UniProt Q96Q83: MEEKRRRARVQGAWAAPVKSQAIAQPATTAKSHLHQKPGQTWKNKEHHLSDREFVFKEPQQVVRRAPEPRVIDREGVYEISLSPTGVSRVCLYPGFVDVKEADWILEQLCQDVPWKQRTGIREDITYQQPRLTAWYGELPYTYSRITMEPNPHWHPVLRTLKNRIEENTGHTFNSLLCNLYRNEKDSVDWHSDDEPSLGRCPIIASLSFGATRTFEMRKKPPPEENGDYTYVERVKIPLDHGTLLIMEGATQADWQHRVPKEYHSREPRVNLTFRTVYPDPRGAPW
UniProt Q96HU1: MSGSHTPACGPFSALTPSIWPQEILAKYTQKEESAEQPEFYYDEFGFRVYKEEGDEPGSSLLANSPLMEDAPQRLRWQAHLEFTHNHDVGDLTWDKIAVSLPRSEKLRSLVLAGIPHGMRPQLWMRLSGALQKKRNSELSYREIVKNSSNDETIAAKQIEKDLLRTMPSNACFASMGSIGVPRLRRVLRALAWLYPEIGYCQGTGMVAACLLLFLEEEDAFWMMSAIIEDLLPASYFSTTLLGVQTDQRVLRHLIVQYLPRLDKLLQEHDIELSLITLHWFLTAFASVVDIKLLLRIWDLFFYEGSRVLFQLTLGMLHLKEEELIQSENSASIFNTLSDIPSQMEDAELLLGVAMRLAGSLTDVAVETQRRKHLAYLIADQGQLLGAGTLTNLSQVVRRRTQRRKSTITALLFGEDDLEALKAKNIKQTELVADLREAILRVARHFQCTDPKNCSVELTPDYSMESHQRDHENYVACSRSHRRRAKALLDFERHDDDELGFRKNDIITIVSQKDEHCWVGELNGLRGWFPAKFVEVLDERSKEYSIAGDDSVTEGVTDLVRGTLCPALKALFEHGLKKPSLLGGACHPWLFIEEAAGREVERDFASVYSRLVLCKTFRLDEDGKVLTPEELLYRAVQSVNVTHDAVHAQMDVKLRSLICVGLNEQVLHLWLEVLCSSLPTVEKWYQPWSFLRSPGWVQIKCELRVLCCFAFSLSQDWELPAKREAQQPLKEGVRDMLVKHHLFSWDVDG
UniProt Q96KR1: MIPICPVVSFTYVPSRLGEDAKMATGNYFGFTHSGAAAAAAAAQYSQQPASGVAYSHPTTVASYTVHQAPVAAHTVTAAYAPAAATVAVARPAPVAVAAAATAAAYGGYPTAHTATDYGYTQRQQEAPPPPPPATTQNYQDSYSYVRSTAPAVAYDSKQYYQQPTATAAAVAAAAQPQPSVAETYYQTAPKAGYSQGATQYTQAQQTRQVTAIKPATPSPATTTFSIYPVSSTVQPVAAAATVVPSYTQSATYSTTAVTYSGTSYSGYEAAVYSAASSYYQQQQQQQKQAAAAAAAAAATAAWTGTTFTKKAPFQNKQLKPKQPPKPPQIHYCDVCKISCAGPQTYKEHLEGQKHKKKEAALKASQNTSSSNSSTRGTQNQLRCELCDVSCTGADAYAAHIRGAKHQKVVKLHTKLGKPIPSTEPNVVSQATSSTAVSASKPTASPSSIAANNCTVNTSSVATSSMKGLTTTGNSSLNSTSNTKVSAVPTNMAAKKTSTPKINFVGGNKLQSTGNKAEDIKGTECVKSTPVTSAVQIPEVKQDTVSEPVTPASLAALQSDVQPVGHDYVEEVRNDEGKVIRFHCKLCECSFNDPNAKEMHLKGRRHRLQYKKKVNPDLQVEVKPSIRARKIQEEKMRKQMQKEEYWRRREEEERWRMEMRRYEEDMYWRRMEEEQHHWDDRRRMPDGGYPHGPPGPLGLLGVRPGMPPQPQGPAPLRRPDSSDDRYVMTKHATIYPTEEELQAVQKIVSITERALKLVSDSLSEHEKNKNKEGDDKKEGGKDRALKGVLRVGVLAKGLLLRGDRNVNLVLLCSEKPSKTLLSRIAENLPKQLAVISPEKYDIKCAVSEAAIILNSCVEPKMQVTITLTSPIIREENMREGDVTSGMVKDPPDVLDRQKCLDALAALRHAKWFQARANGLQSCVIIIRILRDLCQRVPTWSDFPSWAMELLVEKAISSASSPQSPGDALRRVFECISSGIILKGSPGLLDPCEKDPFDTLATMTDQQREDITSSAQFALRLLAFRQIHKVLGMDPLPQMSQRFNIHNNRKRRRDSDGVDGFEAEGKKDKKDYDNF
UniProt Q96K31: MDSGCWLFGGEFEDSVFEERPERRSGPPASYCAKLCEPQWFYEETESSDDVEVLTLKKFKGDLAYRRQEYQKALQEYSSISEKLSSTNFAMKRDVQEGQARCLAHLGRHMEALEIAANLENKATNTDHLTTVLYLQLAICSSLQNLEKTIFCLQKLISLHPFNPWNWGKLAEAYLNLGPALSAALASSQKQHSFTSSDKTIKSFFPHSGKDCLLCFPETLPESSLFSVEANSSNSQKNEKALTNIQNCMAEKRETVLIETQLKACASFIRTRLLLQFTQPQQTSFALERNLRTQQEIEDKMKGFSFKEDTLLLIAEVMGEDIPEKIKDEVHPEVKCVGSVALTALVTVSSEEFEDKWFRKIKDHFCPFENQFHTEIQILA
UniProt Q96RE9: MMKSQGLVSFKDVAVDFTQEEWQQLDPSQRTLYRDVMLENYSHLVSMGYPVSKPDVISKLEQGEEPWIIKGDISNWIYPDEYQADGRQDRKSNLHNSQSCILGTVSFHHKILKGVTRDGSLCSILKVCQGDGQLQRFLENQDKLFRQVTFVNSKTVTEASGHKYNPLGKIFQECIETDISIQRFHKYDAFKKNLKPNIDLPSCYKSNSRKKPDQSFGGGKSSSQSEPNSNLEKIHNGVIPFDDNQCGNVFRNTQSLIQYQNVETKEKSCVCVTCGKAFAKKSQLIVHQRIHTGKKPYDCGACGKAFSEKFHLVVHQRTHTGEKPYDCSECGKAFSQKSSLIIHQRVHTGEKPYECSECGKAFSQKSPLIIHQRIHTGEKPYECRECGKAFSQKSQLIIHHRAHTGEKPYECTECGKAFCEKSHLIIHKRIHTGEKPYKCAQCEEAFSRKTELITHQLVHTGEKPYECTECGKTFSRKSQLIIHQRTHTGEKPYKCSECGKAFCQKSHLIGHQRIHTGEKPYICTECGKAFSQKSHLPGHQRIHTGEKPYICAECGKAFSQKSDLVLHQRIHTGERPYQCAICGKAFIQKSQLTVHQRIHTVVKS
UniProt Q96I15: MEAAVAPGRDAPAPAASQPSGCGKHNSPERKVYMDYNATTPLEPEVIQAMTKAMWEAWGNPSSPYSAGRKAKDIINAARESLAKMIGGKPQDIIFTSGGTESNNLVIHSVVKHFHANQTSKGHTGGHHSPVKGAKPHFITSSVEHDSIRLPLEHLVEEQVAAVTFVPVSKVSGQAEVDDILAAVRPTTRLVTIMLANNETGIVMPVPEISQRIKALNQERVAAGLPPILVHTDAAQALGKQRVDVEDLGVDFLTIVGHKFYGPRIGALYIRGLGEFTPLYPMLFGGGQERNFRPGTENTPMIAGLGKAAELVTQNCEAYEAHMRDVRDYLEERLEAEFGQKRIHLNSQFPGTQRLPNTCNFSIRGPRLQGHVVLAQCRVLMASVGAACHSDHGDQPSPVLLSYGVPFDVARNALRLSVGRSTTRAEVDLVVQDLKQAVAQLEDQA
UniProt Q96PE1: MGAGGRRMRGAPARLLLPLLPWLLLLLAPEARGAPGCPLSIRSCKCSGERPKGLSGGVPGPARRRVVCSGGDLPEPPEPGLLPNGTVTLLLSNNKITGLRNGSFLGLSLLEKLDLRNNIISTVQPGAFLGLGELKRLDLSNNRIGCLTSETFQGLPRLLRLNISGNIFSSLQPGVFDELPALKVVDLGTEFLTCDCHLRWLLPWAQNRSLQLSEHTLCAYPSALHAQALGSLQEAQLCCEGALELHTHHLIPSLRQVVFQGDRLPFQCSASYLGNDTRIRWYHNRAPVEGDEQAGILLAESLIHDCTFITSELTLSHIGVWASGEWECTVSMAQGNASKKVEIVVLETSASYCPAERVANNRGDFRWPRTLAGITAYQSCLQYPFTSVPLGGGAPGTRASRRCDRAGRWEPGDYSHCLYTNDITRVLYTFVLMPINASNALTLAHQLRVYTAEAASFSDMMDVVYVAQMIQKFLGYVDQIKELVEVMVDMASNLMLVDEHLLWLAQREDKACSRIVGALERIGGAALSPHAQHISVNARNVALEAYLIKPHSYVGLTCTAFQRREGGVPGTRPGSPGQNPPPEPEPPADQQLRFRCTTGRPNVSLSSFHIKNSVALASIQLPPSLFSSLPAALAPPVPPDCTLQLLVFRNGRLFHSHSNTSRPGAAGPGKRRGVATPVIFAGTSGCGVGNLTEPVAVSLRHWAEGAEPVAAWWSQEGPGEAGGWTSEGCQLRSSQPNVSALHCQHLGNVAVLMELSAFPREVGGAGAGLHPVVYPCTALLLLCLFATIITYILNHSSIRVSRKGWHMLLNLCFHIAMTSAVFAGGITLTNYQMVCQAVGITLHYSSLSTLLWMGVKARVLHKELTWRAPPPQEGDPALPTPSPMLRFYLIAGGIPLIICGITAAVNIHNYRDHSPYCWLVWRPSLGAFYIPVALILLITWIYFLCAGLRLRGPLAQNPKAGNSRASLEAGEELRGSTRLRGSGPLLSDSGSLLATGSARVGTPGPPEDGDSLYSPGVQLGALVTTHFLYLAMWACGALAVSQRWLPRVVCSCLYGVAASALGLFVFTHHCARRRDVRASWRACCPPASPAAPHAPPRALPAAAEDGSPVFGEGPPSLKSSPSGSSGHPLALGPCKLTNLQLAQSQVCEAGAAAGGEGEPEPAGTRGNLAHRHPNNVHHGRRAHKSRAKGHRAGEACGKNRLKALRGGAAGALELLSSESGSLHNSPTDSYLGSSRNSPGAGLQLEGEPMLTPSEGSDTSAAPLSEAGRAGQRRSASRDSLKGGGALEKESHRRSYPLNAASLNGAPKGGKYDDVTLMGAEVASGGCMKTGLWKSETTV
UniProt Q96FW1, whole entry: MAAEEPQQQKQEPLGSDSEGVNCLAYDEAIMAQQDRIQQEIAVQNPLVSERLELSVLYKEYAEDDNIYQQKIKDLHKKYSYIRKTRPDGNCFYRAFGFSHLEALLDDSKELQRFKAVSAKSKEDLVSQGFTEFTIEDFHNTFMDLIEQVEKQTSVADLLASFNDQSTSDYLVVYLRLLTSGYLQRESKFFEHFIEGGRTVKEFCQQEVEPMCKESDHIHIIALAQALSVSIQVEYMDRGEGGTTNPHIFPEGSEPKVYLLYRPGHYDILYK

The targets below were run with Cc1nc(Nc2ncc(C(=O)Nc3c(C)cccc3Cl)s2)cc(N2CCN(CCO)CC2)n1 [dasatinib] (assay: log2 fold change of tryptic peptide abundance, ligand vs vehicle (limited proteolysis) (log2 ratio); higher = more trypsin-susceptible (destabilized)). Conditions: ligand concentration: 5 uM; sample: K562 cleared lysate.

Row | Target | log2 fold change
1 | WDR24 (peptide sequence: HEIVDTPPGPEHLQDK, peptide start residue: 576) (UniProt Q96S15) | 0.157
2 | ALKBH3 (peptide sequence: ITMEPNPHWHPVLR, peptide start residue: 146) (UniProt Q96Q83) | 0.329
3 | SGSM3 (peptide sequence: SPGWVQIK, peptide start residue: 693) (UniProt Q96HU1) | 0.273
4 | UniProt Q96S19 (peptide sequence: CTEGLFR, peptide start residue: 118) | -0.244
5 | ZFR (peptide sequence: INFVGGNKLQSTGNK, peptide start residue: 502) (UniProt Q96KR1) | 0.374
6 | C8orf76 (peptide sequence: SGPPASYCAK, peptide start residue: 25) (UniProt Q96K31) | 0.136
7 | UniProt Q96RE9 (peptide sequence: SPLIIHQR, peptide start residue: 366) | -0.0572
8 | SCLY (peptide sequence: AAELVTQNCEAYEAHMR, peptide start residue: 308) (UniProt Q96I15) | -0.564
9 | UniProt Q96PE1 (peptide sequence: GGGALEK, peptide start residue: 1282) | 0.04
10 | TOE1 (peptide sequence: TANFVAVDTELSGLGDRK, peptide start residue: 57) (UniProt Q96GM8) | -0.169
11 | OTUB1 (peptide sequence: FFEHFIEGGR, peptide start residue: 189) (UniProt Q96FW1) | -0.354

Entries 1–2, reprinted for reference:
Row | Target | log2 fold change
1 | WDR24 (peptide sequence: HEIVDTPPGPEHLQDK, peptide start residue: 576) (UniProt Q96S15) | 0.157
2 | ALKBH3 (peptide sequence: ITMEPNPHWHPVLR, peptide start residue: 146) (UniProt Q96Q83) | 0.329
